In publication doi:10.1101/2021.12.10.472131 (bioRxiv, 2021) one finds binding data, which are given here for two molecules.

No constants are given. Whether binding was seen depends on the method and setting. Some entries that bind do so weakly or less than the wild type. For some assays here: Tags and fused reporters may be left off the sequences shown.

Assay [1] deals with T1, Par-3 PDZ1-APM (residues 309-987) (UniProt O96782).
T1 sequence: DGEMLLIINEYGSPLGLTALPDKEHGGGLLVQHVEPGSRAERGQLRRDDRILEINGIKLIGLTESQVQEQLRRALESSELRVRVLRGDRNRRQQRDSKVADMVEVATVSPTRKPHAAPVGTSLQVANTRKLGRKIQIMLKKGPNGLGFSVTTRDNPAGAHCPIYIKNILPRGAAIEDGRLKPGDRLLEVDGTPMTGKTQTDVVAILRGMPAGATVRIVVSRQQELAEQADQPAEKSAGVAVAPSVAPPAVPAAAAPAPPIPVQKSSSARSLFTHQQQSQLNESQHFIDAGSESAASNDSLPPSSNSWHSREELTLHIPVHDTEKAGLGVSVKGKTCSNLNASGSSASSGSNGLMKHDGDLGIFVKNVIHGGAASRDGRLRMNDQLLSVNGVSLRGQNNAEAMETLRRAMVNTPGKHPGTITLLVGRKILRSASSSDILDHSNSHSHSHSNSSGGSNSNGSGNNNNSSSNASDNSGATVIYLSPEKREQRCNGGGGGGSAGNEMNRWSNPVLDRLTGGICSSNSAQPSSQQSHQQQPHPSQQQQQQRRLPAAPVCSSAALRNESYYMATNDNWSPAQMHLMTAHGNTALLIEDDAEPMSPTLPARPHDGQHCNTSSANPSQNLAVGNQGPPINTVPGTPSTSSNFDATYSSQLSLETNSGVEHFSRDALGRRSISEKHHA
Briefly: supernatant depletion assay.

The target in a further assay is T2, his-Par-6 (UniProt O97111).
T2 sequence: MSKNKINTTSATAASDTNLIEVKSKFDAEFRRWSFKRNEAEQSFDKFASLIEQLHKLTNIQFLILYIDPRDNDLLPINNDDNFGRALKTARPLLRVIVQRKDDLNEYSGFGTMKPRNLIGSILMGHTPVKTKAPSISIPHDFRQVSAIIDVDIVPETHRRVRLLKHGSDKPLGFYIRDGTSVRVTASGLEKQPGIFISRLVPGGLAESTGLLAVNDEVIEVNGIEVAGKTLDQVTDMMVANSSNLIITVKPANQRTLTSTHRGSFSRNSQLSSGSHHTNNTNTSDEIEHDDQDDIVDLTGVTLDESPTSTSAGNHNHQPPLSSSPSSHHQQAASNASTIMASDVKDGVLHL
In words: co-purification.

B1: Par complex (Par-6 and atypical Protein Kinase C, aPKC) (complex, UniProt A1Z9X0 1-606; O97111 1-351)
chain 1: MQKMPSQILNDGSSVSLNSASMNMANTPNSITVKTAYNGQIIITTINKNISYEELCYEIRNICRFPLDQPFTIKWVDEENDPCTISTKMELDEAIRLYEMNFDSQLVIHVFPNVPQAPGLSCDGEDRSIYRRGARRWRKLYRVNGHIFQAKRFNRRAFCAYCQDRIWGLGRQGFKCIQCKLLVHKKCHKLVQKHCTDQPEPLVKERAEESSDPIPVPLPPLPYEAMSGGAEACETHDHAHIVAPPPPEDPLEPGTQRQYSLNDFELIRVIGRGSYAKVLMVELRRTRRIYAMKVIKKALVTDDEDIDWVQTEKHVFETASNHPFLVGLHSCFQTPSRLFFVIEFVRGGDLMYHMQRQRRLPEEHARFYAAEISLALNFLHEKGIIYRDLKLDNVLLDHEGHIKLTDYGMCKEGIRPGDTTSTFCGTPNYIAPEILRGEDYGFSVDWWALGVLLYEMLAGRSPFDLAGASENPDQNTEDYLFQVILEKTIRIPRSLSVRAASVLKGFLNKNPADRLGCHRESAFMDIVSHPFFKNMDWELLERKQVTPPFKPRLDSDRDLANFPPEFTGEAVQLTPDDDHVIDNIDQSEFEGFEYVNPLLMSLEDCV
chain 2: T2 sequence
With B1, in assay [1], the binding result is given as “binds”.

B2: atypical Protein Kinase C (aPKC) (enzyme, UniProt A1Z9X0 1-606)
chain: B1 chain 1
As to B2, the binding result with his-Par-6 was “binds”.
